# Values quoted from earlier work as cited in patent US11464736B2, “Thermally gelling drug formulations” (UNM Rainforest Innovations, priority 2019, dated 2022).
# Where two headings read alike, the source gives them in different places.
smiles,measurement,setting,value
"CCC(C)n1ncn(-c2ccc(N3CCN(c4ccc(OCC5COC(Cn6cncn6)(c6ccc(Cl)cc6Cl)O5)cc4)CC3)cc2)c1=O (centres unmarked) [ITZ, Itraconazole]",solubility,in alcohol,very slightly soluble
same,solubility,physiological pH,practically insoluble
